Results deposited as PubChem BioAssay AID1259308 (NCATS, 2017).
This is one part, drawn at random, of about 59,000 reagents. Over the whole deposit, about 1,510 (2.6%) are marked active. 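Calls use total luciferase alone and ignore viability, so some active siRNAs may act by altering cell number.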 Reagents against one gene are numbered here. Not all columns of the deposit are shown.

- Purpose: 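Genes whose loss raises luciferase production in HEK293 cells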 (primary screen)
- Cells: human HEK293 embryonic kidney cells stably expressing firefly luciferase (HEK-CMV-Luc2-Hygro)
- Knock-down reagent: single siRNA against human genes, 0.8 pmol siRNA per well
- Timing: 72 h
- Read-out: 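Luciferase light (ONE-Glo) measured on one replicate plate set and viability (CellTiter-Glo) on the other, scaled to a negative control siRNA, with robust z-scores and luciferase per cell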
- Scale: total luciferase, z-score and total luciferase, % of control: higher = more reporter protein produced
- Call rule: 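An siRNA counts as active if its total luciferase robust z-score exceeds 3; genes with two or more such siRNAs out of three were retested with fresh siRNAs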
- Meaning of the calls: active = raised luciferase; inactive = no rise

For CCKBR (cholecystokinin B receptor) #1, how do the results read?
total luciferase, z-score: 2.31; total luciferase, % of control: 128; outcome: inactive

For CCKBR (cholecystokinin B receptor) #2, what does the deposit list?
total luciferase, z-score: 0.527; total luciferase, % of control: 92.4; outcome: inactive

What is on record for CCKBR (cholecystokinin B receptor) #3?
total luciferase, z-score: -0.495; total luciferase, % of control: 72.1; outcome: inactive

What is on record for PMP2 (peripheral myelin protein 2) #1?
total luciferase, z-score: 0.643; total luciferase, % of control: 94.7; outcome: inactive

How did the screen score PMP2 (peripheral myelin protein 2) #2?
total luciferase, z-score: -0.937; total luciferase, % of control: 63.2; outcome: inactive

How did the screen score PMP2 (peripheral myelin protein 2) #3?
total luciferase, z-score: 0.606; total luciferase, % of control: 93.9; outcome: inactive

What is on record for ERP27 (endoplasmic reticulum protein 27) #1?
total luciferase, z-score: 1.88; total luciferase, % of control: 119; outcome: inactive

How did the screen score ERP27 (endoplasmic reticulum protein 27) #2?
total luciferase, z-score: 2.1; total luciferase, % of control: 124; outcome: inactive

What did the screen give for ERP27 (endoplasmic reticulum protein 27) #3?
total luciferase, z-score: 0.0157; total luciferase, % of control: 82.2; outcome: inactive

What is on record for PRELID3BP10 (PRELI domain containing 3B pseudogene 10) #1?
total luciferase, z-score: 1.15; total luciferase, % of control: 105; outcome: inactive

How did the screen score PRELID3BP10 (PRELI domain containing 3B pseudogene 10) #2?
total luciferase, z-score: 3.06; total luciferase, % of control: 143; outcome: active

For PRELID3BP10 (PRELI domain containing 3B pseudogene 10) #3, what was measured?
total luciferase, z-score: 4.59; total luciferase, % of control: 173; outcome: active

How did the screen score PRELID3BP10 (PRELI domain containing 3B pseudogene 10) #4?
total luciferase, z-score: 1.1; total luciferase, % of control: 104; outcome: inactive

How did the screen score PRELID3BP10 (PRELI domain containing 3B pseudogene 10) #5?
total luciferase, z-score: -1.35; total luciferase, % of control: 55.1; outcome: inactive

What did the screen give for PRELID3BP10 (PRELI domain containing 3B pseudogene 10) #6?
total luciferase, z-score: -1.74; total luciferase, % of control: 47.3; outcome: inactive
